Laboratory results as given in publication PMC4245242.
These are yes or no findings as the source states them, for the method shown. For some assays here: In cells and extracts the contact can be indirect. Some entries that bind do so weakly or less than the wild type.

Chains of the proteins cited; added tags and fusions are not shown. Residues count along the entry.
UniProt P70205, residues 21-496: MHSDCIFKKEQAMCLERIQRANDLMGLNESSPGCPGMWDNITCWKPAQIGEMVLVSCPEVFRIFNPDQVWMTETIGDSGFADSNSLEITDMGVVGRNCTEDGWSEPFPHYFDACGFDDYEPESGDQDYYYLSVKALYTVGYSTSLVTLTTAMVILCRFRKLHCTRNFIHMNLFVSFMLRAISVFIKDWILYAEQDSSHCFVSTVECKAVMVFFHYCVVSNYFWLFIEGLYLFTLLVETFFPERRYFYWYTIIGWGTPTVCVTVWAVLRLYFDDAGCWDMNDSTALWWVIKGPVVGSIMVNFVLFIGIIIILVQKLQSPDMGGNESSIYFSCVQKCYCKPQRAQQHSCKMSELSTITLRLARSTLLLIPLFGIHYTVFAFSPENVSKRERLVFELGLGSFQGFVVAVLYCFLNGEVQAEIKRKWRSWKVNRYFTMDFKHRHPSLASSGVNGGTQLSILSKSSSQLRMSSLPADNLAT

Columns and labels:
[1] = target: PAC1, pituitary adenylate cyclase-activating polypeptide (PACAP)-preferring receptor, wild type, mouse Normal/Hop isoform (mouse) (UniProt P70205); assay: FRET or BRET; static BRET in CHO cells: a total of 1.0 µg of DNA per well divided equally among the constructs; background: signal between PAC-Rlu and soluble YFP; with or without NAC (10 nM)
[2] = target: PAC1, pituitary adenylate cyclase-activating polypeptide (PACAP)-preferring receptor, wild type, mouse Normal/Hop isoform (mouse) (UniProt P70205); assay: non-reducing SDS-PAGE and western blot; lysate of cells expressing PAC-YFP, SDS-PAGE under non-reducing conditions, blot with a goat polyclonal IgG against the C-terminus of PAC1; with or without NAC (10 nM)
[3] = target: PAC1, pituitary adenylate cyclase-activating polypeptide (PACAP)-preferring receptor, wild type, mouse Normal/Hop isoform (mouse) (UniProt P70205); assay: split reporter; BiFC seen by fluorescence and confocal microscopy: CHO cells co-transfected with the Y/N- and Y/C-tagged receptor, images 0, 0.5 and 2 h after serum withdrawal
[4] = target: PAC1, pituitary adenylate cyclase-activating polypeptide (PACAP)-preferring receptor, wild type, mouse Normal/Hop isoform (mouse) (UniProt P70205); assay: split reporter; BiFC read in a plate reader: CHO cells in 96-well plates co-transfected with the Y/N- and Y/C-tagged receptor, YFP fluorescence 48 h after transfection (excitation 480±30 nm, emission 535±40 nm); with or without NAC (10 nM, 2 h, 4°C)
[5] = target: PAC1, pituitary adenylate cyclase-activating polypeptide (PACAP)-preferring receptor, wild type, mouse Normal/Hop isoform (mouse) (UniProt P70205); assay: FRET or BRET; saturation BRET in CHO cells: constant amount of Rlu-tagged donor construct, increasing amounts of YFP-tagged acceptor construct, coelenterazine h 5 µM, 48 h after transfection; with or without NAC (10 nM, 2 h, 4°C)

Measured: binding

PAC1, pituitary adenylate cyclase-activating polypeptide (PACAP)-preferring receptor, wild type, mouse Normal/Hop isoform (from UniProt P70205 21-496)
binds: all assays above
